Measured values: patent publication US20210206880A1
No constants are given. Whether binding was seen depends on the method and setting. Some binding calls cover weakened binding; strength is not graded here.

Protein sequences, listed by entry. Tags and fused reporters are not part of them. Residues count along the entry.
UniProt Q16620, residues 32-430: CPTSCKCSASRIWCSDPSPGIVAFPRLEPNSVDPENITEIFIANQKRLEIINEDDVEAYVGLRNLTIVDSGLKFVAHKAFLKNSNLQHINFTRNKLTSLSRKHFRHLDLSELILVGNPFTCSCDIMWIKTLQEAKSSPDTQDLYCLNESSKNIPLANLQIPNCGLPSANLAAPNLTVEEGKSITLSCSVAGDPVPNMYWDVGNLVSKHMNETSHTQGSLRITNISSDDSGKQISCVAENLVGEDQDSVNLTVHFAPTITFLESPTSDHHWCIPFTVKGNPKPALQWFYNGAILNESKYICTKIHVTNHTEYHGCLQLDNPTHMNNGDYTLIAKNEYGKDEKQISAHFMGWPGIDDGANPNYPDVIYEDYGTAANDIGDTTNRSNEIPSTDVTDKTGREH

Molecular target: tropomyosin-related kinase receptor B (TrkB) (UniProt Q16620)
Assay: X-ray crystallography of the ternary complex

binding: binds
B1: MbNb22^cYgjkE2 (designed binder)
chain: QVQLVESGGGLVYKEETQSGLNNYARVVEKGQYDSLEIPAQVAASWESGRDDAAVFGFIDKEQLDKYVANGGKRSDWTVKFAENRSQDGTLLGYSLLQESVDQASYMYSDNHYLAEMATILGKPEEAKRYRQLAQQLADYINTCMFDPTTQFYYDVRIEDKPLANGCAGKPIVERGKGPEGWSPLFNGAATQANADAVVKVMLDPKEFNTFVPLGTAALTNPAFGADIYWRGRVWVDQFWFGLKGMERYGYRDDALKLADTFFRHAKGLTADGPIQENYNPLTGAQQGAPNFSWSAAHLYMLYNDFFRKQASGGGSGGGGSGGGGSGNADNYKNVINRTGAPQYMKDYDYDDHQRFNPFFDLGAWHGHLLPDGPNTMGGFPGVALLTEEYINFMASNFDRLTVWQDGKKVDFTLEAYSIPGALVQKLTAKDVQVEMTLRFATPRTSLLETKITSNKPLDLVWDGELLEKLEAKEGKPLSDKTIAGEYPDYQRKISATRDGLKVTFGKVRATWDLLTSGESEYQVHKSLPVQTEINGNRFTSKAHINGSTTLYTTYSHLLTAQEVSKEQMQIRDILARPAFYLTASQQRWEEYLKKGLTNPDATPEQTRVAVKAIETLNGNWRSPGGAVKFNTVTPSVTGRWFSGNQTWPWDTWKQAFAMAHFNPDIAKENIRAVFSWQIQPGDSVRPQDVGFVPDLIAWNLSPERGGDGGNWNERNTKPSLAAWSVMEVYNVTQDKTWVAEMYPKLVAYHDWWLRNRDHNGNGVPEYGATRDKAHNTESGEMLFTVKKDSLRLSCTASGFTFDNYAIGWFRQAPGKEREGVSCISRSGRSTYYADSVKGRVTIAKEKNTVLLQMNDLQPDDTAVYYCAAGTVTVVGSACPSTARRLWGRGTQVTVSSHHHHHHEPEA
